Reference: paper PMC12343779
These are yes or no findings as the source states them, for the method shown. In cells and extracts the contact can be indirect. These calls come from enrichment with a bait or labelling near it, and not all partners need be listed.

By UniProt entry, the sequences of proteins in these tests, tags left out. Residues count along the entry.
UniProt Q63722, residues 34-1219: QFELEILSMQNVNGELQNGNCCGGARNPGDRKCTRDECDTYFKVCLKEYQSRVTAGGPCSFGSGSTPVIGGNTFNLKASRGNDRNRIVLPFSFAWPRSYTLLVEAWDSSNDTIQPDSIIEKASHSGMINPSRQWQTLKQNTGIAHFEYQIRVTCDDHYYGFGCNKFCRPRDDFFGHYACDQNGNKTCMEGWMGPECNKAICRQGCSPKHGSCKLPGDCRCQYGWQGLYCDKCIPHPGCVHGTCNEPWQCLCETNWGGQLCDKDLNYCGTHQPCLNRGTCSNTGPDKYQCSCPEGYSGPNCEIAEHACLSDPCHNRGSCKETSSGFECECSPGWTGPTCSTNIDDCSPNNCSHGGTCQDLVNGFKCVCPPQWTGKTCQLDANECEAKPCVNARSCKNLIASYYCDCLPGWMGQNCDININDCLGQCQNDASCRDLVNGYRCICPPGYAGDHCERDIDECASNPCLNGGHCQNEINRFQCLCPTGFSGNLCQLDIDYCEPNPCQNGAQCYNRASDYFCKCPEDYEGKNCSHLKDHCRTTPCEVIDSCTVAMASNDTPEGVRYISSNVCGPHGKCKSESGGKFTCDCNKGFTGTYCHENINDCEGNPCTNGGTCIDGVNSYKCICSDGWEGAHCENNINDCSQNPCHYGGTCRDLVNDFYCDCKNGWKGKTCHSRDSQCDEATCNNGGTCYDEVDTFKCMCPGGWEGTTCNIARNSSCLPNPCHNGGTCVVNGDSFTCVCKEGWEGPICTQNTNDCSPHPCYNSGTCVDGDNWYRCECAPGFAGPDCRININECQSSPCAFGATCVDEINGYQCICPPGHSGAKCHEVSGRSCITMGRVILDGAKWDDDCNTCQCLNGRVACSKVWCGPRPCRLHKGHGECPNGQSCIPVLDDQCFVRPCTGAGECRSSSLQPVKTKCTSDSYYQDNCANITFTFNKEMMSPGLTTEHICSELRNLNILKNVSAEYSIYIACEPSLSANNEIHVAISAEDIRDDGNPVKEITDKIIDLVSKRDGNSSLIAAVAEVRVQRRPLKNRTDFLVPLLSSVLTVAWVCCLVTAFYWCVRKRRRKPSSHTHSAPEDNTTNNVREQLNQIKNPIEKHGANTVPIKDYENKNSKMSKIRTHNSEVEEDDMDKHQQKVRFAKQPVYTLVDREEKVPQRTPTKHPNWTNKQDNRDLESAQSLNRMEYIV
UniProt G3V7W1: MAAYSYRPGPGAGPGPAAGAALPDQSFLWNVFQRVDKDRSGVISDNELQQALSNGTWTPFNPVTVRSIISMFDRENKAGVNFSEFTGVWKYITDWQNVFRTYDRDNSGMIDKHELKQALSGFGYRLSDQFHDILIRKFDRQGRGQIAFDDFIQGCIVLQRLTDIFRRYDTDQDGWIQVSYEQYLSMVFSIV

Each molecule was assayed against JAG1 (rat (endogenous in rat liver tissue)) (UniProt Q63722) (assay: affinity purification with mass spectrometry; JAG1 immunoprecipitated from rat liver tissue lysate (IgG control), SDS-PAGE and silver staining, mass spectrometry of the immunoprecipitated proteins, STRING PPI network).

| binding | Molecule |
| --- | --- |
| binds | SEC31A (protein, UniProt Q9Z2Q1 1-1249) MKLKEIDRTAMQAWSPAQNHPIYLATGTSAQQLDATFSTNASLEIFELDLSDPSLDMKSCATFSSSHRYHKLIWGPHKMDSKGDVSGVLIAGGENGNIILYDPSKIIAGDKEVVIAQKDKHTGPVRALDVNIFQTNLVASGANESEIYIWDLNNFATPMTPGAKTQPPEDISCIAWNRQVQHILASASPSGRATVWDLRKNEPIIKVSDHSNRMHCSGLAWHPDVATQMVLASEDDRLPVVQMWDLRFASSPLRVLENHARGILAIAWSMADPELLLSCGKDAKILCSNPNTGEVLYELPTNTQWCFDIQWCPRNPAVLSAASFDGRIRVYSIMGGSIDGLRQKQVDKLSSSFGNLDPFGTGQPLPPLQIPQQTSQHSIVLPLKKPPKWIRRPVGASFSFGGKLVTFENVTGQPQQGAEQPRRQPVFISQVVTEKDFLSRSEQLQHVVQSQGFISYCQKKIDASQTDFEKNVWSFLKVNFEEDSRGKYLELLGYRREDLGEKIALALNRVDGSDVALKDSDRVAQSDGEESPAEEGQLLGERIKEEKQECDFLPSAGGGTFNISVSGDIDGLITRALLTGNFESAVDLCLHDNRMADAIILAIAGGQELLAQTQKKYFAKSQSKITRLITAVVMKNWKEIVESCDLKNWREALAAVLTYAKPDEFSALCDLLGARLESEGDSLLRTQACLCYICAGNVERLVACWTKAQDGSNPLSLQDLIEKVVILRKAVQLTQALDTNTVGALLAEKMSQYANLLAAQGSIAAALAFLPDNTNQPDIVQLRDRLCRAQGRSVPGQESSRSSYEGQPLPKGGPGPLAGHPQVSRVQSQQYYPQVRIAPTVTTWSDRTPTALPSHPPAACPSDTQGGNPPPPGFIMHGNVVPNSPAPLPTSPGHMHSQPPPYPQPQPYQPAQQYSLGTGGSAVYRPQQPVAPPASKRYPNAPYVSPVASYSGQPHMYTAQPASSPTSSSAPLPPPPSSGASFQHGGPGAPPSSSAYALPPGTTGTPPAASELPASQRTGPQNGWNDPPALNRVPKKKKLPENFMPPVPITSPIMNPGGDPQPQGLQQQPSASGPRSSHASFPQPHLAGGQPFHGIQQPLAQTGMPPSFSKPNTEGAPGAPIGNTIQHVQALPTEKITKKPIPDEHLILKTTFEDLIQRCLSSATDPQTKRKLDDASKRLECLYDKLRDQTLSPTIISGLHSIARSIETRNYSEGLTVHTHIVSTSNFSETSAFMPVLKVVLSQASKLGV |
| binds | CD63 (protein, UniProt P28648 1-238) MAVEGGMKCVKFLLYVLLLAFCACAVGLIAIGVAVQVVLKQAITHETTAGSLLPVVIIAVGAFLFLVAFVGCCGACKENYCLMITFAIFLSLIMLVEVAVAIAGYVFRDQVKSEFSKSFQKQMQNYLTDNKTATILDKLQKENKCCGASNYTDWERIPGMAKDRVPDSCCINITVGCGNDFKESTIHTQGCVETIAAWLRKNVLLVAGAALGIAFVEVLGIIFSCCLVKSIRSGYEVM |

The next lines start with the molecule.

| Molecule | binding |
| --- | --- |
| ALG-2 (from UniProt G3V7W1 1-191) | binds |
| SEC13 (protein, UniProt Q5XFW8 1-322) MVSVINTVDTSHEDMIHDAQMDYYGTRLATCSSDRSVKIFDVRNGGQILIADLRGHEGPVWQVAWAHPMYGNILASCSYDRKVIIWKEENGTWEKTHEHSGHDSSVNSVCWAPHDYGLILACGSSDGAISLLTYTGEGQWEVKKINNAHTIGCNAVSWAPAVVPGSLIDQPSGQKPNYIKKFASGGCDNLIKLWREEEDGQWKEEQKLEAHSDWVRDVAWAPSIGLPTSTIASCSQDGRVFIWTCDDASGNMWSPKLLHKFNDVVWHVSWSITANILAVSGGDNKVTLWKESVDGQWVCISDVNKGQGSVSASITEGQQNEQ | binds |
